Measured values from paper PMC5062570 (Nature Communications, 2016).

Assays:
[1] = system: CatD protein in mouse brain; assay: CatD western blot of brain homogenates from dosed mice; format: in vivo; details: 80 mg kg-1 daily, 30 days
RPE tissue proteins = assay: Proteomic analysis (peptide spectral matches) of RPE tissue from dosed rats; format: in vivo, rat; details: for High? / Low?: direction of change in PF-9283-treated vs vehicle rat RPE; for PF-9283 avg. # PSM: three PF-9283-treated rats, two technical replicates; for Hit?: significant difference vehicle vs PF-9283, two-tailed t-test
[2] = protein 4F2 cell-surface antigen heavy chain (Q794F9), rat RPE, 80 mg kg-1 daily, 14 days
[3] = protein Annexin A6 (P48037), rat RPE, 80 mg kg-1 daily, 14 days
[4] = protein Apolipoprotein A-I (P04639), rat RPE, 80 mg kg-1 daily, 14 days
[5] = protein Cathepsin D (Q6P6T6), rat RPE, 80 mg kg-1 daily, 14 days
[6] = protein Cytochrome c oxidase subunit 6C-2 (P11951), rat RPE, 80 mg kg-1 daily, 14 days
[7] = protein Guanine nucleotide-binding protein G(o) subunit alpha (D4ABT0), rat RPE, 80 mg kg-1 daily, 14 days
[8] = protein Isoform 3 of NADH-cytochrome b5 reductase 3 (P20070-3), rat RPE, 80 mg kg-1 daily, 14 days
[9] = protein Serine (or cysteine) proteinase inhibitor, clade H, member 1 (Q5RJR9), rat RPE, 80 mg kg-1 daily, 14 days
[10] = protein Sulfated glycoprotein 1 (P10960), rat RPE, 80 mg kg-1 daily, 14 days
[11] = protein Transgelin (P31232), rat RPE, 80 mg kg-1 daily, 14 days
[12] = protein Tyrp1 (D3ZH71), rat RPE, 80 mg kg-1 daily, 14 days
[13] = protein: Isoform 3 of NADH-cytochrome b5 reductase 3 (P20070-3)

Q: What does the source list for `Cc1cc([C@H]2C[C@H]3[C@@H](C)SC(N)=N[C@@]3(c3ccc(F)cc3F)CO2)on1` [PF-9283]?
A: CatD protein level in mouse brain (western blot) [1]: significantly increased levels of CatD protein; also recorded: increased levels of CatD heavy and light chains, but not the CatD single chain; PF-9283/Veh. PSM (RPE tissue proteins; [2]): 0.41; PF-9283 Avg. # PSM (RPE tissue proteins; [2]): 6.8; PF-9283/Veh. PSM (RPE tissue proteins; [3]): 0.61; PF-9283 Avg. # PSM (RPE tissue proteins; [3]): 9.0; PF-9283/Veh. PSM (RPE tissue proteins; [4]): 1.57; PF-9283 Avg. # PSM (RPE tissue proteins; [4]): 7.8; PF-9283/Veh. PSM (RPE tissue proteins; [5]): 1.69; PF-9283 Avg. # PSM (RPE tissue proteins; [5]): 85.5; PF-9283/Veh. PSM (RPE tissue proteins; [6]): 0.60; PF-9283 Avg. # PSM (RPE tissue proteins; [6]): 5.0; PF-9283/Veh. PSM (RPE tissue proteins; [7]): 0.64; PF-9283 Avg. # PSM (RPE tissue proteins; [7]): 14.8; PF-9283/Veh. PSM (RPE tissue proteins; [8]): 0.65; PF-9283 Avg. # PSM (RPE tissue proteins; [8]): 6.2; PF-9283/Veh. PSM (RPE tissue proteins; [9]): 0.59; PF-9283 Avg. # PSM (RPE tissue proteins; [9]): 17.7; PF-9283/Veh. PSM (RPE tissue proteins; [10]): 1.75; PF-9283 Avg. # PSM (RPE tissue proteins; [10]): 52.5; PF-9283/Veh. PSM (RPE tissue proteins; [11]): 1.52; PF-9283 Avg. # PSM (RPE tissue proteins; [11]): 26.3; PF-9283/Veh. PSM (RPE tissue proteins; [12]): 0.60; PF-9283 Avg. # PSM (RPE tissue proteins; [12]): 5.7; High? / Low? (RPE tissue proteins; protein: Cathepsin D (Q6P6T6)): high; PF-9283/Veh. PSM (RPE tissue proteins; protein: Cathepsin D (Q6P6T6), rat RPE tissue, ratio of average PSM): 1.69; PF-9283 avg. # PSM (RPE tissue proteins; protein: Cathepsin D (Q6P6T6), rat RPE tissue): 85.5; Hit? (RPE tissue proteins; protein: Cathepsin D (Q6P6T6)): Hit; High? / Low? (RPE tissue proteins; protein: Ezrin (P31977)): low; PF-9283/Veh. PSM (RPE tissue proteins; protein: Ezrin (P31977), rat RPE tissue, ratio of average PSM): 0.84; PF-9283 avg. # PSM (RPE tissue proteins; protein: Ezrin (P31977), rat RPE tissue): 29.7; Hit? (RPE tissue proteins; protein: Ezrin (P31977)): Hit; High? / Low? (RPE tissue proteins; [13]): low; PF-9283/Veh. PSM (RPE tissue proteins; protein: Isoform 3 of NADH-cytochrome b5 reductase 3 (P20070-3), rat RPE tissue, ratio of average PSM): 0.65; PF-9283 avg. # PSM (RPE tissue proteins; protein: Isoform 3 of NADH-cytochrome b5 reductase 3 (P20070-3), rat RPE tissue): 6.2; Hit? (RPE tissue proteins; [13]): Hit; High? / Low? (RPE tissue proteins; protein: Transgelin (P31232)): high; PF-9283/Veh. PSM (RPE tissue proteins; protein: Transgelin (P31232), rat RPE tissue, ratio of average PSM): 1.52; PF-9283 avg. # PSM (RPE tissue proteins; protein: Transgelin (P31232), rat RPE tissue): 26.3; Hit? (RPE tissue proteins; protein: Transgelin (P31232)): Hit; Increase in CatD in rat RPE (PSM, versus vehicle) (RPE tissue proteins; rats, 80 mg kg-1 daily, 14 days): 1.7 fold

“Also recorded” adds a separate entry of the source.
